Out of some 2,100 compounds screened, about 210 (10%) were called active. Inconclusive results, whose numbers are uncertain, are shown with a selection of clear calls. The call rests on the fitted dose curve; in most records, active means well fitted inhibition curve with a large enough effect; inconclusive means small, poorly fitted or top-dose-only effect, or effect the other way; inactive means no such curve, though single readings can be large or run the other way. Potencies beside an inconclusive call are fits to weak or partial responses and may not hold up.
Experiment: IN Cell qHTS Assay for Inhibitors of the mTORC1 Signaling Pathway in MEF (Tsc2-/-, p53-/-) Cells: Sytravon; further: nearly all actives have a fitted effect of over 60% in size
Conditions: phospho-rpS6 immunofluorescence, 24 h; series mostly up to 38.3 µM
How it was run: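 Immunofluorescence of rpS6 phosphorylation (Ser235/236) in mouse embryonic fibroblasts lacking Tsc2 and p53, after 24 h compound exposure; Hoechst-normalized signal imaged, each well scored as % active cells relative to rapamycin (7.5 nM) and DMSO controls.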
Potency means the concentration at half of the fitted maximal effect.

Row | SMILES | Potency
1 | CCC(C)NC(=O)CCCn1c(=O)c2cccn2c2ccccc21 (centres undefined) | inactive
2 | CCOC(=O)CSc1nc2sc3c(c2c(=O)n1Cc1ccccc1)CC(C(C)C)OC3 (centres undefined) | inconclusive: 14.7 µM [falling, partial curve, poor fit]
3 | Cc1ccsc1CN(C(=O)COc1ccccc1Cl)C1CCS(=O)(=O)C1 (centres undefined) | inconclusive: 0.736 µM [falling, full curve]
4 | Cc1cc(Nc2ccccc2C)c2cccc(C)c2n1 | inconclusive: 16.5 µM [falling, single point]
5 | CCS(=O)(=O)c1ncc(Cl)c(C(=O)Nc2ccc(S(=O)(=O)N(C)c3ccccc3)cc2)n1 | active: 0.927 µM
6 | Cc1ccc(Nc2nc3nonc3nc2Nc2cccc(C(F)(F)F)c2)cc1Cl | inconclusive: 26.1 µM [falling, single point]
7 | Cc1ccc(NC(=O)C(Cc2c[nH]c3ccccc23)NC(=O)OC(C)(C)C)c(C)c1 (centres undefined) | inactive
8 | COc1ccccc1OCCn1c(NC(=O)c2ccccc2Cl)nc2ccccc21 | inconclusive: 26.1 µM [falling, single point]
9 | CCCN1CCN(c2ncnc3sc(C(=O)Nc4ccc(C(C)C)cc4)c(C)c23)CC1 | inconclusive: 0.927 µM [falling, full curve, poor fit]
10 | COc1ccc(-c2ccc3c(N)c(C(=O)c4ccc(OC)c(OC)c4)sc3n2)cc1 | inconclusive: 11.7 µM [falling, partial curve, poor fit]
11 | CCc1ccc(-n2c(=O)c3c4c(sc3n(CC(=O)c3ccc(F)cc3)c2=O)CCC4)cc1 | inconclusive: 0.0046 µM [falling, full curve, poor fit]
12 | Cc1ccccc1NC(=O)CC(NCc1cccnc1)C(=O)O (centres undefined) | inconclusive: 5.21 µM [falling, single point]
13 | CC1CCCN(CCCNC(=O)c2cc(Sc3ccc(F)cc3)nc3ccccc23)C1 (centres undefined) | inactive
14 | Cc1cn2c(=O)cc(COC(=O)c3ccc(NC(=O)COc4ccccc4C)cc3)nc2s1 | inactive
15 | COc1ccc(CCCc2nnc(SCC(=O)Nc3cccc(F)c3C)o2)cc1 | inactive
16 | CCOc1ccc(Nc2nc(-c3cccc(Cl)c3)c3c(n2)-c2ccccc2OC3)cc1 | active: 2.07 µM
17 | CCCCN(C)CC(O)Cn1cc(/C=C/C(=O)c2ccc(Br)cc2)c2ccccc21 (centres undefined) | inactive
18 | CCCCN(CCCNC(=O)c1cc(Nc2cccc(SC)c2)nc2ccccc12)Cc1ccccc1 | inconclusive: 7.36 µM [falling, partial curve, poor fit]
19 | CC(=O)Nc1ccc(NC(=O)c2nc(S(=O)(=O)Cc3ccc(F)cc3)ncc2Cl)cc1 | active: 8.26 µM

Entries 10–13 of the list above:
Row | SMILES | Potency
10 | COc1ccc(-c2ccc3c(N)c(C(=O)c4ccc(OC)c(OC)c4)sc3n2)cc1 | inconclusive: 11.7 µM [falling, partial curve, poor fit]
11 | CCc1ccc(-n2c(=O)c3c4c(sc3n(CC(=O)c3ccc(F)cc3)c2=O)CCC4)cc1 | inconclusive: 0.0046 µM [falling, full curve, poor fit]
12 | Cc1ccccc1NC(=O)CC(NCc1cccnc1)C(=O)O (centres undefined) | inconclusive: 5.21 µM [falling, single point]
13 | CC1CCCN(CCCNC(=O)c2cc(Sc3ccc(F)cc3)nc3ccccc23)C1 (centres undefined) | inactive

Reference: PubChem BioAssay AID504465 (National Center for Advancing Translational Sciences (NCATS), 2011)
